Measurements taken from PMC3590204.
Results are given in words; binding and its absence hold for the method and conditions named. Binding seen in cells or lysates may run through a third protein. Some entries that bind do so weakly or less than the wild type.

By UniProt entry, the sequences of proteins in these tests, tags left out.
UniProt Q16539: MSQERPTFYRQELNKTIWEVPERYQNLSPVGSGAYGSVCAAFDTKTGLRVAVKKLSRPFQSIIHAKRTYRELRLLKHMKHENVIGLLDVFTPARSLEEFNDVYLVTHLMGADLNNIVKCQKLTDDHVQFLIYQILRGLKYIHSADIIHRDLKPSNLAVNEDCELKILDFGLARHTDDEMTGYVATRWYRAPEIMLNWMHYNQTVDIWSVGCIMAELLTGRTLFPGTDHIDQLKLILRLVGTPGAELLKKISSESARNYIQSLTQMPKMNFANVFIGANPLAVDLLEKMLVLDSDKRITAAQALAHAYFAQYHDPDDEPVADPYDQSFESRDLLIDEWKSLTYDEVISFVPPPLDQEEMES
UniProt Q99873: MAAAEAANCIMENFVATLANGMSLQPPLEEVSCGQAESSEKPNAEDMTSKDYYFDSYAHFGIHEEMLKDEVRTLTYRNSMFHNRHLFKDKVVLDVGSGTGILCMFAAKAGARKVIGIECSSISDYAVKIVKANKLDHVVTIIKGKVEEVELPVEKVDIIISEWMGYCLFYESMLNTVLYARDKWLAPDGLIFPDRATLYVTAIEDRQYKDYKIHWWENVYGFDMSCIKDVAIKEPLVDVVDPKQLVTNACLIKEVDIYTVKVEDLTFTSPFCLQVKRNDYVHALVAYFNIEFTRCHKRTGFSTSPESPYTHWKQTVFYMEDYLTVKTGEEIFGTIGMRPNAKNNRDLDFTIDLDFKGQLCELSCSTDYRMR

Experiments:
[1] = biological target: p38α MAPK (human (endogenous in K562)) (UniProt Q16539); experiment: co-IP; endogenous proteins from K562 cell lysates; immunoprecipitation with an anti-p38α specific antibody or an anti-PRMT1 specific antibody, blot for the other protein; mouse IgG as negative control
[2] = biological target: Protein arginine methyltransferase 1 (human (endogenous in K562)) (UniProt Q99873); experiment: as above

Substance	binding [1]	binding [2]
Protein arginine methyltransferase 1 (from UniProt Q99873 1-371) (enzyme)	binds	–
p38α MAPK (from UniProt Q16539 1-360) (enzyme)	–	binds
